Laboratory results as given in publication PMC4094855.
These are yes or no findings as the source states them, for the method shown. Binding seen in cells or lysates may run through a third protein. Some binding calls cover weakened binding; strength is not graded here.

Protein sequences, listed by entry. Tags and fused reporters are not part of them.
UniProt P34932: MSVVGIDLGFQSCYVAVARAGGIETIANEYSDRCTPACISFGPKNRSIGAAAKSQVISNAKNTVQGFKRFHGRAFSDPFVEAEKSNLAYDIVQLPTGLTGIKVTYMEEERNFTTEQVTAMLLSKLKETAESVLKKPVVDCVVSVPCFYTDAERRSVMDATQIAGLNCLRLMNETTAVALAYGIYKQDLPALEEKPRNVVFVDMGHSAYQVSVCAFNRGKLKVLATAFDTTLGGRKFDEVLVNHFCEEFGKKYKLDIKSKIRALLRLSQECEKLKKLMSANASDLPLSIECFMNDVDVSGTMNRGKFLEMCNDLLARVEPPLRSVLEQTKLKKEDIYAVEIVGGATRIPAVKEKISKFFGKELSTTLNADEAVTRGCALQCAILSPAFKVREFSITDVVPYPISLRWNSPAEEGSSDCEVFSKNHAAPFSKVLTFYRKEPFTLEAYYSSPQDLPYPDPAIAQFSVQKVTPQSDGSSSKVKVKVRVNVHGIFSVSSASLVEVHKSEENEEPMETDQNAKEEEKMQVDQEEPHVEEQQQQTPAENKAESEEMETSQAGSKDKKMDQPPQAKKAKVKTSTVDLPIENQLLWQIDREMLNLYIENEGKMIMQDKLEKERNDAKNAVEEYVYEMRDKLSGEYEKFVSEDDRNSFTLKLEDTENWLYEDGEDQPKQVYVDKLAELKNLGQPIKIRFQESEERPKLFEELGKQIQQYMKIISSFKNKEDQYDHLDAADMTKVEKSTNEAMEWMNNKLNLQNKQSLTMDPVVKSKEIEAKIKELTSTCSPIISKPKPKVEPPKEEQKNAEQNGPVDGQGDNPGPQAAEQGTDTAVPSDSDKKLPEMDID
UniProt P04264: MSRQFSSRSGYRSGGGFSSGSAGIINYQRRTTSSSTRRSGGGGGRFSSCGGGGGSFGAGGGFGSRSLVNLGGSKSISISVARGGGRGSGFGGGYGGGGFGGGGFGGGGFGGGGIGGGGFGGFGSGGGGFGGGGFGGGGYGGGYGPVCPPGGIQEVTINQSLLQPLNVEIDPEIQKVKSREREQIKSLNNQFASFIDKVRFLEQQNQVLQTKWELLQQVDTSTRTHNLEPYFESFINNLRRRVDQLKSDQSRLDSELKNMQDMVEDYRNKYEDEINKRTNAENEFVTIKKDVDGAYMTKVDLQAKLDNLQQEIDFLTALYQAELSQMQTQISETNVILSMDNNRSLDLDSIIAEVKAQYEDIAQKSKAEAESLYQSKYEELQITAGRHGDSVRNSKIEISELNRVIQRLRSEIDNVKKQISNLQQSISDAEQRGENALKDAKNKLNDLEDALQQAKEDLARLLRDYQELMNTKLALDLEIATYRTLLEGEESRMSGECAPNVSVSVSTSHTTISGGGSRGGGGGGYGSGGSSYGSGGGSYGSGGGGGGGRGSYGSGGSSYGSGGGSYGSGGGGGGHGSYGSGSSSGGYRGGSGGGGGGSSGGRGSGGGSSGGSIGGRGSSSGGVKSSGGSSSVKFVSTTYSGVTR

Target: Hsp74 (human (endogenous in BLZ211 bladder cancer cells)) (UniProt P34932)
Assay: co-IP; purified McAb immobilised on gel in spin cups (ProFound Co-IP Kit, Pierce); BLZ211 total cell lysate (M-PER); eluate run on a gel, bands identified by LC-MS/MS

Q: Which binding does the source give for keratin 1 (from UniProt P04264 1-644) here?
A: binds
